These are yes or no findings as the source states them, for the method shown. Binding seen in cells or lysates may run through a third protein. Some entries that bind do so weakly or less than the wild type. Where a sequence is shown, tags or fusion partners need not be part of it.

The chains behind the UniProt entries cited, without tags or fusion partners.
UniProt Q9QYP6: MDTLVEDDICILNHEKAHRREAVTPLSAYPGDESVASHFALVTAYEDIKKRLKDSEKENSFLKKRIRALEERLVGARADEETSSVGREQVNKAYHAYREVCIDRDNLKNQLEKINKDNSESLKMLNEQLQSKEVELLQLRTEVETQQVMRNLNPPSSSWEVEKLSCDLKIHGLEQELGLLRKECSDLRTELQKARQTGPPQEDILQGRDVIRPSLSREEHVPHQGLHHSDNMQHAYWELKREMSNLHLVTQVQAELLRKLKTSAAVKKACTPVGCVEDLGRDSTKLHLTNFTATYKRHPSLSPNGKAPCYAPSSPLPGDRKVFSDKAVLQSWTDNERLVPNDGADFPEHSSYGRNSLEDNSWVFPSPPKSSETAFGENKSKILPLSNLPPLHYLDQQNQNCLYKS

The target of one experiment is T1, Flag-tagged IKKε (UniProt Q9R0T8).
T1 sequence: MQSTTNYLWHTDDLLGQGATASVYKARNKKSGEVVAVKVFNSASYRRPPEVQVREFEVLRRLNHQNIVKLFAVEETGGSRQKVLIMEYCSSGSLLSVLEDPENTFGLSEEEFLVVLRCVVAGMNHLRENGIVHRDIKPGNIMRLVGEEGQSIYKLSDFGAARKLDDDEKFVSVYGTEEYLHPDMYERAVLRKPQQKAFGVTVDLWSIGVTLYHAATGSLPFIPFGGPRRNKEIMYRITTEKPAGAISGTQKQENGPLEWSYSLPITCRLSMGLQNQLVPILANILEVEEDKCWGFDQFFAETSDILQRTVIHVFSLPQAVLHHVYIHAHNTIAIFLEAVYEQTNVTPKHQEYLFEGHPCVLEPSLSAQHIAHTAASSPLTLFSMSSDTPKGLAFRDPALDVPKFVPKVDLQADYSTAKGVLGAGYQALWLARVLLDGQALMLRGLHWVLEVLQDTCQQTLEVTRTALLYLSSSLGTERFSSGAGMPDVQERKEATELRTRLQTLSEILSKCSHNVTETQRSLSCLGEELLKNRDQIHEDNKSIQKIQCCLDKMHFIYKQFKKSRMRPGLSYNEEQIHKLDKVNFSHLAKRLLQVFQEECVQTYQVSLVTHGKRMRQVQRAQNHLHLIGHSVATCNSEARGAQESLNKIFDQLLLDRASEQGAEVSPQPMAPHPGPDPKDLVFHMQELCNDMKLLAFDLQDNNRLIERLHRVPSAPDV
The experiment can be described thus: co-IP; lysates of ST2 TBK1/IKKε DKO cells reconstituted with Flag-tagged TBK1, IKKε or GFP; anti-Flag immunoprecipitation, immunoblot. On the technique in general: Immunoblotting shows a protein as a band on a membrane.

Another experiment deals with T2, Flag-tagged TBK1 (UniProt Q9WUN2).
T2 sequence: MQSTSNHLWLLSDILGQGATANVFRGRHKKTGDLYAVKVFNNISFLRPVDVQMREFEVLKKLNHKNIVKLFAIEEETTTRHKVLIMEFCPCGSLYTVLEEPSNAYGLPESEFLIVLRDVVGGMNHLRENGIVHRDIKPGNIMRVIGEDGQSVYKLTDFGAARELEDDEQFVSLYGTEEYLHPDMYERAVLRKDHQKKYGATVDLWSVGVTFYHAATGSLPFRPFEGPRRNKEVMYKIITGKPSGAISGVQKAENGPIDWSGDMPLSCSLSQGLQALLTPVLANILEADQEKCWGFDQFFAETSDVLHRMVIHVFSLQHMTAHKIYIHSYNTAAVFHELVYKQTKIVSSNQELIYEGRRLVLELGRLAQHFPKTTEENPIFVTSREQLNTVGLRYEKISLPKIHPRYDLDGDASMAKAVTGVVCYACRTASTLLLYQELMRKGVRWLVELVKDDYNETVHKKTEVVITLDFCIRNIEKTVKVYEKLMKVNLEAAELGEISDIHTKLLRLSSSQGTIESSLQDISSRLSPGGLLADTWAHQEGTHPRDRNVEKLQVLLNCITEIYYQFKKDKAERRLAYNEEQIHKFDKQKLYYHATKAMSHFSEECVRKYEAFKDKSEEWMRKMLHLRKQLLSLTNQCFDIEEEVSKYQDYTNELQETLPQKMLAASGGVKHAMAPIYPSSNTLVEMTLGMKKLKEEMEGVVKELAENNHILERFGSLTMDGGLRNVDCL
Described as above.

As to NAP1 (from UniProt Q9QYP6 1-405), the binding result with Flag-tagged IKKε and in the experiment with Flag-tagged TBK1 was “binds” throughout.

B1: TANK (protein, UniProt P70347 1-448)
chain: MSLKRHSLRRNACHLETRAGIPTILYSDATGQRGMDKNIGEQLNRAYEAFRQACMDRDSAVRELQQKQTENYEQRIREQQEQLSFQQNLIDRLKSQLLLVDSSRDNSYGYVPLLEDSDRRKNNLTLDEPHDKVKLGTLRDKQSKVRRQEVSSGKESAKGLNIPLHHERDNIEKTFWDLKEEFHRICLLAKAQKDHLSKLNIPDIATDTQCSVPIQCTDKTEKQEALFKPQAKDDINRGMSCVTAVTPRGLGRDEEDTSFESLSKFNVKFPPMDNDSIFLHSTPEAPSILAPATPETVCQDRFNMEVRDNPGNFVKTEETLFEIQGIDPITSAIQNLKTTDKTNPSNLRATCLPAGDHNVFYVNTFPLQDPPDAPFPSLDSPGKAVRGPQQPFWKPFLNQDTDLVVPSDSDSELLKPLVCEFCQELFPPSITSRGDFLRHLNTHFNGET
In the case of B1, the binding entry in the experiment with Flag-tagged IKKε and in the experiment with Flag-tagged TBK1 was “binds” each time.

Source of the values: article PMC7459424.
